Results deposited as PubChem BioAssay AID504804 (Drosophila RNAi Screening Center, 2011)

- Assay: 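dsRNAs that improve Kc cell survival under doxorubicin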 (primary screen)
- System: Drosophila Kc cells
- Reagent: long dsRNA against Drosophila genes, 0.5 µg dsRNA per well
- Duration: 96 h (48 h knock-down, then 48 h drug)
- Conditions: doxorubicin 5 µg/ml for 48 h, added 48 h after dsRNA
- Detection: 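Viability measured as cellular ATP by luminescence after 48 h knock-down then 48 h doxorubicin at 5 µg/ml; unnormalised plate counts for each replicate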
- Direction: raw ATP luminescence: higher = more viable cells, protection from doxorubicin
- Rule for the call: 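z-score of 2 or more over plate mean in both duplicates, retained only when retests and separate dsRNAs confirm the protection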
In all, the deposit lists about 19,000 reagents; shown is a random part of those that have a named target and a result. Over the whole deposit, 47 (0.25%) were called active. 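Signals are raw, not normalised; exact z-scores behind calls not deposited; actives needed confirmation, so some wells reaching 2 SD are inactive.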 The numbers tell different reagents against one gene apart. Names joined by + are all predicted targets of the reagent. No sequences are given here.

CG31953 (retired record) + gkt: raw ATP luminescence, replicate 1 = 1.10e5; raw ATP luminescence, replicate 2 = 64250; Outcome = inactive
CG34196: raw ATP luminescence, replicate 1 = 96263; raw ATP luminescence, replicate 2 = 82543; Outcome = inactive
CG8170: raw ATP luminescence, replicate 1 = 50203; raw ATP luminescence, replicate 2 = 62043; Outcome = inactive
Rab21: raw ATP luminescence, replicate 1 = 1.74e5; raw ATP luminescence, replicate 2 = 1.94e5; Outcome = inactive
Su(var)3-3 (Suppressor of variegation 3-3): raw ATP luminescence, replicate 1 = 39840; raw ATP luminescence, replicate 2 = 22393; Outcome = inactive
l(2)34Fc (lethal (2) 34Fc): raw ATP luminescence, replicate 1 = 52877; raw ATP luminescence, replicate 2 = 64543; Outcome = inactive
Srg3 (Sting-regulated gene 3) #1: raw ATP luminescence, replicate 1 = 1.52e5; raw ATP luminescence, replicate 2 = 1.01e5; Outcome = inactive
Srg3 (Sting-regulated gene 3) #2: raw ATP luminescence, replicate 1 = 80850; raw ATP luminescence, replicate 2 = 57810; Outcome = inactive
CG17564: raw ATP luminescence, replicate 1 = 64373; raw ATP luminescence, replicate 2 = 64783; Outcome = inactive
Or65b (Odorant receptor 65b): raw ATP luminescence, replicate 1 = 1.12e5; raw ATP luminescence, replicate 2 = 1.42e5; Outcome = inactive
CG3294: raw ATP luminescence, replicate 1 = 1.03e5; raw ATP luminescence, replicate 2 = 81900; Outcome = inactive
hiro (highroad): raw ATP luminescence, replicate 1 = 87750; raw ATP luminescence, replicate 2 = 75930; Outcome = inactive
CG11170: raw ATP luminescence, replicate 1 = 81273; raw ATP luminescence, replicate 2 = 62197; Outcome = inactive
CG9517 (retired record) #1: raw ATP luminescence, replicate 1 = 3.55e5; raw ATP luminescence, replicate 2 = 3.21e5; Outcome = inactive
CG9517 (retired record) #2: raw ATP luminescence, replicate 1 = 3.13e5; raw ATP luminescence, replicate 2 = 2.73e5; Outcome = inactive
fs(1)Yb (female sterile (1) Yb): raw ATP luminescence, replicate 1 = 59140; raw ATP luminescence, replicate 2 = 55300; Outcome = inactive
CG31122 #1: raw ATP luminescence, replicate 1 = 49747; raw ATP luminescence, replicate 2 = 37530; Outcome = inactive
CG31122 #2: raw ATP luminescence, replicate 1 = 48880; raw ATP luminescence, replicate 2 = 71690; Outcome = inactive
Frmd5 (FERM domain containing): raw ATP luminescence, replicate 1 = 39133; raw ATP luminescence, replicate 2 = 76097; Outcome = inactive
Gs1l (GS1-like): raw ATP luminescence, replicate 1 = 24607; raw ATP luminescence, replicate 2 = 30213; Outcome = inactive
l(2)k09022 (lethal (2) k09022): raw ATP luminescence, replicate 1 = 78870; raw ATP luminescence, replicate 2 = 68203; Outcome = inactive
CG30416: raw ATP luminescence, replicate 1 = 80690; raw ATP luminescence, replicate 2 = 61083; Outcome = inactive
rept (reptin): raw ATP luminescence, replicate 1 = 64263; raw ATP luminescence, replicate 2 = 60760; Outcome = inactive
snk (snake): raw ATP luminescence, replicate 1 = 81630; raw ATP luminescence, replicate 2 = 48940; Outcome = inactive
gig (gigas): raw ATP luminescence, replicate 1 = 35503; raw ATP luminescence, replicate 2 = 48090; Outcome = inactive
CG31075: raw ATP luminescence, replicate 1 = 74140; raw ATP luminescence, replicate 2 = 39320; Outcome = inactive
Ada1-1 + Ada1-2 #1: raw ATP luminescence, replicate 1 = 2.86e5; raw ATP luminescence, replicate 2 = 3.08e5; Outcome = inactive
Ada1-1 + Ada1-2 #2: raw ATP luminescence, replicate 1 = 2.80e5; raw ATP luminescence, replicate 2 = 2.48e5; Outcome = inactive

5 neighbouring records already listed, for reference:
CG17564: raw ATP luminescence, replicate 1 = 64373; raw ATP luminescence, replicate 2 = 64783; Outcome = inactive
Or65b (Odorant receptor 65b): raw ATP luminescence, replicate 1 = 1.12e5; raw ATP luminescence, replicate 2 = 1.42e5; Outcome = inactive
CG3294: raw ATP luminescence, replicate 1 = 1.03e5; raw ATP luminescence, replicate 2 = 81900; Outcome = inactive
hiro (highroad): raw ATP luminescence, replicate 1 = 87750; raw ATP luminescence, replicate 2 = 75930; Outcome = inactive
CG11170: raw ATP luminescence, replicate 1 = 81273; raw ATP luminescence, replicate 2 = 62197; Outcome = inactive
